Laboratory results published in patent US10443018B2, “Phenyl based compounds substituted with aldehyde moieties and their use in perfumery” (GIVAUDAN SA, priority 2014, dated 2019).

Assay: Odour description

| Compound | Odour description |
| --- | --- |
| CCOC(=O)CCc1cc(C)cc(CC(C)C)c1 [Compound 5, ethyl 3-(3-isobutyl-5-methylphenyl)propanoate] | sweet, fruity, candy |
| Cc1ccc(CCC=O)c(CC(C)C)c1 [Compound 7, 3-(2-isobutyl-4-methylphenyl)propanal] | green floral, animalic costus |
| Cc1cc(CCC=O)cc(CC(C)C)c1 [Compound 1, 3-(3-Isobutyl-5-methylphenyl)propanal] | green aldehydic, citrus juicy orange |
| Cc1ccc(C=O)c(CC(C)C)c1 [2-Isobutyl-4-methylbenzaldehyde, 2-isobutyl-4-methylbenzaldehyde] | green leathery, spicy saffron |
| Cc1cc(CC(C)C)ccc1C=O [4-Isobutyl-2-methylbenzaldehyde, 4-isobutyl-2-methylbenzaldehyde] | weak, green aromatic, thyme origanum, resinous, slightly isobutyl benzoate |
